Data: publication PMC2263054, “Functional evolution of the vitamin D and pregnane X receptors” (BMC Evolutionary Biology, 2007)

What was measured:
Assay type in all cases: cell-based
Conditions in all cases: screening for activators, at least three concentrations of each drug
Xenopus laevis VDR = target: T1, Xenopus laevis VDR (Xenopus laevis, UniProt O13124); experiment: luciferase reporter transactivation assay in HepG2-NTCP cells, GAL4/xlVDR LBD chimera with tk-UAS-Luc
T1 sequence (O13124 90-422): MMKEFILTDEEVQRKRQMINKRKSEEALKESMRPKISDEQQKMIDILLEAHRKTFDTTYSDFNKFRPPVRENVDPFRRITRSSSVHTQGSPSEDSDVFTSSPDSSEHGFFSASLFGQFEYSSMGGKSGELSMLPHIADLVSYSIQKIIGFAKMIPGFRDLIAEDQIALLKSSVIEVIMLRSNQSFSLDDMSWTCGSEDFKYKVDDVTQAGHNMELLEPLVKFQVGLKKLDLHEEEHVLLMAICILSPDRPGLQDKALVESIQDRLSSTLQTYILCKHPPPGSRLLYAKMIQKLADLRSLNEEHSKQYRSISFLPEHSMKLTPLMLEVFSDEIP

Zebrafish VDR = target: T2, Zebrafish VDR (Danio rerio, UniProt Q9PTN2); experiment: luciferase reporter transactivation assay in HepG2-NTCP cells, GAL4/zfVDR LBD chimera with tk-UAS-Luc
T2 sequence (Q9PTN2 121-453): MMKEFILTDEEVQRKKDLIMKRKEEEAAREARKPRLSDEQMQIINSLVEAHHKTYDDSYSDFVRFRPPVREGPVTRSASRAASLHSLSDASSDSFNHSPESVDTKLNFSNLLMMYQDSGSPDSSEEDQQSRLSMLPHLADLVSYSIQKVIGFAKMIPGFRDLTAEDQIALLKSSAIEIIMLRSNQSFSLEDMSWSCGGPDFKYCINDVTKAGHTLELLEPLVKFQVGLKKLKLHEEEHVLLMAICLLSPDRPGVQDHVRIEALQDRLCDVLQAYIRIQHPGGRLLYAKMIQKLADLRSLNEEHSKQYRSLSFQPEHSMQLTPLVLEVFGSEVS

Sea lamprey VDR = target: T3, Sea lamprey VDR (Petromyzon marinus, UniProt Q7ZZY9)
T3 sequence (Q7ZZY9 92-406): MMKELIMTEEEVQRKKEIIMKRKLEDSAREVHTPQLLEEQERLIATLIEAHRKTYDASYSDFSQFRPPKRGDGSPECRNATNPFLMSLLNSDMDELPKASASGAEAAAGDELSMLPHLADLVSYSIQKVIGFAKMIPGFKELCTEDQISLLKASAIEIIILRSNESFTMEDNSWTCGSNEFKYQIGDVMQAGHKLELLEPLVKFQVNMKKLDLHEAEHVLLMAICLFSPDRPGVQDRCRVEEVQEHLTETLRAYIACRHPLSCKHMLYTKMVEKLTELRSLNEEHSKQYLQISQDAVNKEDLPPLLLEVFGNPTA

COC(=O)C1=C(C)NC(C)=C(C(=O)OC)C1c1ccccc1[N+](=O)[O-] [Nifedipine]
No effect: Effect on Xenopus laevis VDR (Xenopus laevis VDR) | Effect on zebrafish VDR (Zebrafish VDR) | Effect on sea lamprey VDR (Sea lamprey VDR)
